# PubChem BioAssay AID504834 (National Center for Advancing Translational Sciences (NCATS), 2011)
# The campaign covered roughly 320,000 compounds. About 22,000 (6.9%) were called active. The inconclusive results got no clear call from the source; some entries with a clear call stand among them for comparison. Calls follow the shape of the dose curve; as a rule, active = well fitted inhibition curve with a large enough effect; inconclusive = small, poorly fitted or top-dose-only effect, or another doubt; inactive = no such curve, though single readings can be large or run the other way. Potencies beside an inconclusive call are fits to weak or partial responses and may not hold up.
# Experiment: Primary qHTS for delayed death inhibitors of the malarial parasite plastid, 96 hour incubation
# Details: P. falciparum luciferase reporter growth; series mostly up to 28.7 µM; activity change, negative = inhibition: at the top concentration
# Method in brief: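 Compounds incubated with erythrocytes infected by luciferase-expressing P. falciparum (2% hematocrit, 0.05% parasitemia final) for 96 hours, 37 C in 5% CO2. Growth inhibition scored as decreased luciferase luminescence.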
# % is scaled to controls: 0 for no effect and ±100 for the full control effect; potency is read from the fitted curve at half-maximal effect.
Compound,"activity change, negative = inhibition",Potency
Cc1ccc(S(=O)(=O)NC(=O)NCCc2ccccc2)cc1,inactive: -4.16%,
COCCNC(=O)c1onc(CSc2nc3ccccc3[nH]2)c1C(=O)NCCOC,,"inconclusive: 0.37 µM [inhibitor, partial curve, poor fit]"
COc1ccc(N2CCN(S(=O)(=O)CCNC(=O)C3CC(=O)N(c4ccccc4)C3)CC2)cc1 (stereo not given),inactive: -1.02%,
CC1=CC2=NC(=O)/C(=C\c3cccn3CCOc3cc(C)ccc3C)C(=N)N2O1,inactive: 17.1%,
O=C(Nn1cnnc1)c1cc(Cl)ccc1Cl,inactive: 2.88%,
CSc1snnc1-c1ccccc1,inactive: 11.3%,
O=C(CN1CCCC1)Nc1ccc2c(c1)CCC2,inactive: -4.9%,
CN(C)CC[C@@H](c1ccc(Br)cc1)c1ccccn1,,"inconclusive: 3.01 µM [inhibitor, partial curve, poor fit]"
O=C(Nc1ccccc1)NN1CC(=O)N(c2ccc(Cl)cc2)CC1=O,inactive: 0.177%,
Cc1sc2c(=O)n3c(nc2c1C(=O)NC1CCCCC1)CCCCC3,,"inconclusive: 2.94 µM [inhibitor, full curve, poor fit]"
CCOc1ccc(Oc2ccc(S(=O)(=O)N3CCOCC3)cc2NC(=O)CCNC(C)=O)cc1,,"inconclusive: 9.28 µM [inhibitor, single point]"
S=C(NCCCN1CCOCC1)Nc1ccc(Cl)c(Cl)c1,,active: 16.5 µM
COc1cccc2cc(C(=O)Nc3ccccc3C)/c(=N/NS(=O)(=O)c3ccccc3)oc12,inactive: 13.4%,
CCOC(=O)C1CCCN(S(=O)(=O)c2ccc(-n3cnnn3)c(C)c2)C1 (stereo not given),inactive: 4.73%,
COC(=O)c1sc2ncccc2c1OCc1c(Cl)cccc1Cl,,"inconclusive: 0.0023 µM [inhibitor, full curve, poor fit]"
C=C(C)/C=N/NC(=S)Nc1ccc(S(=O)(=O)N2CCOCC2)cc1,,"inconclusive: 0.738 µM [inhibitor, partial curve, poor fit]"
CC1=CC(C)(C)[N+](C)(C)c2ccc(C)cc21,,"inconclusive: 10.4 µM [inhibitor, partial curve, poor fit]"
CCOC(=O)C1CCN(/C=C2/C(=O)NC(=O)N(c3cccc(C)c3C)C2=O)CC1,inactive: -2.19%,
O=C(O)CCc1ccc(-c2ccccc2)n1NC(=O)c1cccs1,,"inconclusive: 13.1 µM [inhibitor, partial curve]"
O=C(/C=C/c1ccc2ccccc2n1)c1cc(Cl)ccc1O,,"inconclusive: 13.1 µM [inhibitor, partial curve, poor fit]"
COc1ccc(-c2c(C(C)=O)c(C)n(C)c2C)cc1,,active: 11.7 µM
COC(=O)c1ccc(-c2csc(NC(=O)c3c(C)noc3C)n2)cc1,inactive: 38.5%,
Cc1cccc(C(=O)Nc2ccc(C(=O)N/N=C/c3cccnc3)cc2)c1,inactive: -10.3%,
COc1ccc(NC(=O)C(=O)c2cn(CC(=O)N3CCOCC3)c3ccccc23)cc1OC,,"inconclusive: 18.5 µM [inhibitor, single point]"

Compound,"activity change, negative = inhibition",Potency
Cc1cc2c(cc1C)NC(c1nc3ccccc3[nH]1)C1=C(CC(C)(C)CC1=O)N2 (stereo not given),inactive: -2.4%,
CCC(COC(=O)NC)NC(=O)Oc1cccc(C)c1 (stereo not given),,"inconclusive: 0.522 µM [inhibitor, full curve, poor fit]"
Clc1ccc2c(c1)[C@H]1OCC[C@H]1[C@@H](c1ccco1)N2,,"inconclusive: 18.5 µM [inhibitor, single point]"
O=c1oc2ccc(C#CC3(O)CCCCC3)cc2cc1-n1cc(-c2ccsc2)nn1,,"inconclusive: 14.7 µM [inhibitor, single point]"
COc1cc2c(cc1OC)[C@@H]1C(=O)c3ccc4c(c3O[C@@H]1CO2)C[C@H](C(C)C)O4,,"inconclusive: 13.1 µM [inhibitor, single point]"
COc1ccc(NC(=O)CN2C(=O)C(C)Oc3ccccc32)c(OC)c1 (stereo not given),,"inconclusive: 0.928 µM [inhibitor, full curve, poor fit]"
Cc1ccc(SCCC(=O)N2CCN(S(=O)(=O)c3ccccc3)CC2)cc1,,"inconclusive: 2.94 µM [inhibitor, partial curve, poor fit]"
CC(C)(C)OC(=O)N1CCC(c2c(C(=O)N3CCN(C4CCCCC4)CC3)cnn2-c2ccccc2)CC1,,"inconclusive: 18.5 µM [inhibitor, single point]"
CC(/C=N\N1CCN(Cc2ccc(C)cc2)CC1)=C\c1ccccc1,,"inconclusive: 0.117 µM [inhibitor, full curve, poor fit]"
COc1ccc(CN(C(=O)c2oc3cc(C)c(C)cc3c2C)C2CCS(=O)(=O)C2)cc1OC (stereo not given),,active: 2.94 µM
COc1ccc(N2CCN(S(=O)(=O)c3ccc(-n4cnnn4)c(C)c3)CC2)cc1,inactive: 23.2%,
O=c1c2ccccc2nc(-c2ccccc2Cl)n1O,,"inconclusive: 2.94 µM [inhibitor, full curve, poor fit]"
O=C(CN1CCN(c2ccc(F)cc2)CC1)Nc1ccccc1C(=O)NCCc1ccccc1,,"inconclusive: 18.5 µM [inhibitor, single point]"
O=C(c1ccccc1)C1CCN(C(=O)c2ccc(Cl)cc2)CC1,,"inconclusive: 3.7 µM [inhibitor, single point]"
CCc1ccc(CNC(=O)C2CCC(=O)N(CCc3ccc(Cl)cc3)C2)nc1 (stereo not given),inactive: 11.8%,
O=C(/C=C/c1ccccc1)N(c1ccccn1)C1CCCCC1,inactive: -19.8%,
Cc1cccc(Nc2nn3c(=O)c4ccccc4nc3s2)c1,inactive: 18.7%,
CCCCCn1c(=O)[nH]c2cc(C(=O)NCc3ccco3)ccc2c1=O,,"inconclusive: 0.0828 µM [inhibitor, partial curve, poor fit]"
O=C(NCc1ccc2c(c1)OCO2)c1cc(Cl)ccc1Cl,inactive: 18.2%,
Cc1sc2ncnc(Sc3ccccc3C(=O)Nc3ccccc3Cl)c2c1C,,"inconclusive: 18.5 µM [inhibitor, single point]"
COc1ccc2cc(C3(C)NC(=O)NC3=O)ccc2c1 (stereo not given),,"inconclusive: 8.28 µM [inhibitor, partial curve, poor fit]"
C=CCNC(=O)c1onc(CSc2ccccn2)c1C(=O)NCC=C,inactive: 3.31%,
C/C=C\C(=O)Nc1cccc(C2=NOC3(C2)C[C@@H](C(N)=O)N(C(=O)c2ccccc2)C3)c1 (stereo not given in full),,"inconclusive: 18.5 µM [inhibitor, single point]"
CN(C(=O)COC(=O)c1ccccc1SCC(=O)N1CCCC1)C1(C#N)CCCCC1,,"inconclusive: 14.7 µM [inhibitor, single point]"

# In a second layout: results already given.
Compound	activity change, negative = inhibition	Potency
Clc1ccc2c(c1)[C@H]1OCC[C@H]1[C@@H](c1ccco1)N2		inconclusive: 18.5 µM [inhibitor, single point]
O=c1oc2ccc(C#CC3(O)CCCCC3)cc2cc1-n1cc(-c2ccsc2)nn1		inconclusive: 14.7 µM [inhibitor, single point]
COc1ccc(CN(C(=O)c2oc3cc(C)c(C)cc3c2C)C2CCS(=O)(=O)C2)cc1OC (stereo not given)		active: 2.94 µM
COc1ccc(N2CCN(S(=O)(=O)c3ccc(-n4cnnn4)c(C)c3)CC2)cc1	inactive: 23.2%	

# The list continues:

Compound,"activity change, negative = inhibition",Potency
COC1CCCN(C(=O)c2ccc3oc(Cc4ccc(Cl)cc4)nc3c2)C1 (stereo not given),,"inconclusive: 0.522 µM [inhibitor, full curve]"
O=C(CSc1nc2ccccc2o1)N/N=C/c1ccccc1,inactive: -9.94%,
CCCCN(C)C(=O)C1CCC(CNS(=O)(=O)c2ccc3c(c2)CC(C)N3C(=O)C2CC2)CC1 (stereo not given),,"inconclusive: 11.7 µM [inhibitor, single point]"
COc1ccccc1CNC(=O)COC(=O)COc1ccccc1Cc1ccccc1,inactive: 27.2%,
Cc1ccc2c(CNCc3ccccc3)cc(=O)oc2c1,,"inconclusive: 18.5 µM [inhibitor, single point]"
Cc1cc(C)cc(NC(=O)[C@H](NC(=O)[C@@H]2Cc3ccccc3CN2)c2ccccc2)c1,,"inconclusive: 18.5 µM [inhibitor, single point]"
COCCCNC(=S)N1CCN(c2nc(-c3ccccc3)cs2)CC1,,"inconclusive: 16.5 µM [inhibitor, single point]"
O=C(O)CCC1OC(=O)C(O)=C1c1ccccc1 (stereo not given),,"inconclusive: 18.5 µM [inhibitor, single point]"
Cc1ccc(S(=O)(=O)N2CCOC23CCN(S(=O)(=O)c2c(C)cc(C)cc2C)CC3)cc1,,active: 4.65 µM
N#CCNC1CC(=O)N(c2ccc(F)cc2)C1=O (stereo not given),,"inconclusive: 14.7 µM [inhibitor, single point]"
CC1=CC(C)(C)n2c(O)c(N=NC(N)=S)c3c(C)c(C)cc1c32,,"inconclusive: 2.33 µM [inhibitor, full curve, poor fit]"
Cc1cc(C)c2c(=O)n(CC(=O)N3CCC(N4CCCCC4)CC3)sc2n1,,"inconclusive: 13.1 µM [inhibitor, single point]"
C/C(=N\N)c1c(-c2ccccc2)c2cc(Br)ccc2[nH]c1=O,,"inconclusive: 18.5 µM [inhibitor, single point]"
COC(=O)[C@@]1(Cc2ccccc2)[C@@H]2C(=CC(=O)[C@H]2CC(=O)C(=O)N(C)C)CN1C(=O)c1ccccc1,,active: 10.4 µM
c1ccc(-n2nnnc2Cc2nnnn2-c2ccccc2)cc1,inactive: 6.63%,
COc1ccc(C2C(C(=O)c3ccco3)=C(O)C(=O)N2c2nnc(C)s2)cc1 (stereo not given),,"inconclusive: 16.5 µM [inhibitor, partial curve, poor fit]"
O=C(c1cccc(F)c1)N1CCN(S(=O)(=O)c2ccc(C(F)(F)F)cc2)CC1,,"inconclusive: 10.4 µM [inhibitor, partial curve, poor fit]"
O=[N+]([O-])c1cc(C(F)(F)F)ccc1NCC1CCCO1 (stereo not given),,"inconclusive: 18.5 µM [inhibitor, single point]"
Cc1cc2c(c(=O)o1)C1(C(=O)N(CC(=O)O)c3ccccc31)C(C#N)=C(N)O2 (stereo not given),,"inconclusive: 13.1 µM [inhibitor, single point]"
CCCn1c(N)c(C(=O)CSc2nnc(N)s2)c(=O)[nH]c1=O,,"inconclusive: 3.29 µM [inhibitor, full curve, poor fit]"
O=C(N/N=C1\CCSc2ccc(F)cc21)c1cccnc1,inactive: 18.5%,
Cc1ccc(-n2c(C)cc(C(=O)CSc3n[nH]c(N)n3)c2C)cc1,,active: 3.29 µM
